Laboratory results: PubChem BioAssay AID1224828 (NIAID, 2016)

Purpose: 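Regulators linking TLR4 signalling to p65 nuclear translocation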 (primary screen)
System: mouse RAW264.7 G9 macrophage reporter cells (GFP-p65, Tnf promoter-mCherry)
Reagents: siRNA pool against mouse genes, 100 nM
Timing: 2 days siRNA transfection, then 40 min LPS before fixation
Treatment: LPS (Salmonella minnesota R595) at 10 ng/ml
Measurement: 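Microscopy ratio of nuclear to perinuclear-ring GFP-p65 signal, scaled to the plate median; gene score is the average of two replicate robust z-scores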
Scale: p65 translocation robust z-score: higher = more nuclear NF-kappaB p65 after LPS than the plate median; nuclear/cytoplasmic p65 ratio: higher = more nuclear NF-kappaB p65
Active means: 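Active if robust z is above 3.3 (negative regulators) or below -1.56, the Tlr4 control median (positive regulators); activity score 50 or more; control wells not called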
Calls: active = hit (p65 shift raised or lowered); inactive = no clear change
In all, the deposit lists about 17,000 reagents; shown is a part drawn at random. 762 of them (4.5%) count as active. 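Active calls include both raised and lowered p65 entry, mostly lowered; wells with fewer than 50 cells lack a z-score.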 The raw values are shown without normalisation. A number with no mark means an inactive call. Reagent sequences are not shown.

| Gene | p65 translocation robust z-score | nuclear/cytoplasmic p65 ratio, rep 1 | nuclear/cytoplasmic p65 ratio, rep 2 | low cell count flag |
| --- | --- | --- | --- | --- |
| Slc3a2 | – | 1.45 | 1.47 | fewer than 50 cells per well; well left out of scoring |
| Rtl8c (retrotransposon Gag like 8C) | – | 1.39 | 1.69 | fewer than 50 cells per well; well left out of scoring |
| Gabrg1 (gamma-aminobutyric acid type A receptor subunit gamma 1) | 1.73 | 1.67 | 1.58 | enough cells to score |
| Apbb3 (amyloid beta precursor protein binding family B member 3) | 0.09 | 1.64 | 1.62 | enough cells to score |
| Srek1 (splicing regulatory glutamine/lysine-rich protein 1) | 1.03 | 1.68 | 1.93 | enough cells to score |
| Dhrs4 (dehydrogenase/reductase 4) | 2.01 | 1.84 | 1.86 | enough cells to score |
| Gm5148 (predicted gene 5148) | -0.19 | 1.67 | 1.53 | enough cells to score |
| Oacyl (O-acyltransferase like) | -0.04 | 1.22 | 1.46 | enough cells to score |
| Cap2 (cyclase associated actin cytoskeleton regulatory protein 2) | 0.2 | 1.63 | 1.81 | enough cells to score |
| Lrsam1 (leucine rich repeat and sterile alpha motif containing 1) | -3.02 (active) | 1.37 | 0.996 | enough cells to score |
| Cul2 (cullin 2) | -0.94 | 1.36 | 1.24 | enough cells to score |
| Nsfl1c (NSFL1 (p97) cofactor (p47)) | – | 1.35 | 1.22 | fewer than 50 cells per well; well left out of scoring |
| 5031404N07 | – | 1.5 | 1.73 | fewer than 50 cells per well; well left out of scoring |
| Terf1 (telomeric repeat binding factor 1) | -0.01 | 1.49 | 1.54 | enough cells to score |
| Slc29a4 | – | 0.919 | 1.28 | fewer than 50 cells per well; well left out of scoring |
| Alppl2 (alkaline phosphatase, placental-like 2) | -0.62 | 1.56 | 1.5 | enough cells to score |
| Garin1b (golgi associated RAB2 interactor 1B) | 0.21 | 1.47 | 1.77 | enough cells to score |
| Aggf1 (angiogenic factor with G patch and FHA domains 1) | 0.35 | 1.6 | 1.73 | enough cells to score |
| Zmat5 (zinc finger, matrin type 5) | -0.88 | 1.19 | 1.34 | enough cells to score |
| Cast (calpastatin) | -0.47 | 1.56 | 1.42 | enough cells to score |
| Slco1a6 | – | 1.84 | 1.54 | fewer than 50 cells per well; well left out of scoring |
| Anxa2 (annexin A2) | -0.63 | 1.52 | 1.52 | enough cells to score |
| A830054O04Rik (RIKEN cDNA A830054O04 gene) | -1.73 (active) | 1.21 | 1.23 | enough cells to score |
| Gpatch2 (G patch domain containing 2) | -0.3 | 1.55 | 1.54 | enough cells to score |
| Ddx5 (DEAD box helicase 5) | -1.56 | 1.28 | 1.35 | enough cells to score |
| E330018D03Rik (retired record) | 2.08 | 1.75 | 1.61 | enough cells to score |
| Gpr22 (G protein-coupled receptor 22) | -1.56 | 1.3 | 1.36 | enough cells to score |
| Aff4 (AF4/FMR2 family, member 4) | -0.04 | 1.39 | 1.45 | enough cells to score |
| Gosr2 (golgi SNAP receptor complex member 2) | -0.49 | 1.39 | 1.29 | enough cells to score |
| Fstl5 (follistatin-like 5) | 2.83 | 2.01 | 1.85 | enough cells to score |
| Fbln5 (fibulin 5) | -0.89 | 1.28 | 1.31 | enough cells to score |
| 5330438I03Rik (RIKEN cDNA 5330438I03 gene) | -0.55 | 1.29 | 1.39 | enough cells to score |
| X99300 (retired record) | 0.26 | 1.41 | 1.31 | enough cells to score |
| Ppp4r1 (protein phosphatase 4, regulatory subunit 1) | -1.27 | 1.31 | 1.26 | enough cells to score |

In a second layout: results already given
{"Gene":"Oacyl (O-acyltransferase like)","p65 translocation robust z-score":-0.04,"nuclear/cytoplasmic p65 ratio, rep 1":1.22,"nuclear/cytoplasmic p65 ratio, rep 2":1.46,"low cell count flag":"enough cells to score"}
{"Gene":"Cap2 (cyclase associated actin cytoskeleton regulatory protein 2)","p65 translocation robust z-score":0.2,"nuclear/cytoplasmic p65 ratio, rep 1":1.63,"nuclear/cytoplasmic p65 ratio, rep 2":1.81,"low cell count flag":"enough cells to score"}
{"Gene":"Lrsam1 (leucine rich repeat and sterile alpha motif containing 1)","p65 translocation robust z-score":"-3.02 (active)","nuclear/cytoplasmic p65 ratio, rep 1":1.37,"nuclear/cytoplasmic p65 ratio, rep 2":0.996,"low cell count flag":"enough cells to score"}
{"Gene":"Cul2 (cullin 2)","p65 translocation robust z-score":-0.94,"nuclear/cytoplasmic p65 ratio, rep 1":1.36,"nuclear/cytoplasmic p65 ratio, rep 2":1.24,"low cell count flag":"enough cells to score"}
{"Gene":"Nsfl1c (NSFL1 (p97) cofactor (p47))","nuclear/cytoplasmic p65 ratio, rep 1":1.35,"nuclear/cytoplasmic p65 ratio, rep 2":1.22,"low cell count flag":"fewer than 50 cells per well; well left out of scoring"}
{"Gene":"5031404N07","nuclear/cytoplasmic p65 ratio, rep 1":1.5,"nuclear/cytoplasmic p65 ratio, rep 2":1.73,"low cell count flag":"fewer than 50 cells per well; well left out of scoring"}
{"Gene":"Terf1 (telomeric repeat binding factor 1)","p65 translocation robust z-score":-0.01,"nuclear/cytoplasmic p65 ratio, rep 1":1.49,"nuclear/cytoplasmic p65 ratio, rep 2":1.54,"low cell count flag":"enough cells to score"}

The results go on:
| Gene | p65 translocation robust z-score | nuclear/cytoplasmic p65 ratio, rep 1 | nuclear/cytoplasmic p65 ratio, rep 2 | low cell count flag |
| --- | --- | --- | --- | --- |
| Dgcr8 (DGCR8, microprocessor complex subunit) | -1.51 | 1.38 | 1.3 | enough cells to score |
| Trmt5 (TRM5 tRNA methyltransferase 5) | -0.27 | 1.33 | 1.46 | enough cells to score |
| Rbm18 (RNA binding motif protein 18) | 1.44 | 1.59 | 1.4 | enough cells to score |
| Ifit1 (interferon-induced protein with tetratricopeptide repeats 1) | 0.4 | 1.48 | 1.43 | enough cells to score |
| Fzd6 (frizzled class receptor 6) | 0.29 | 1.54 | 1.63 | enough cells to score |
| Gipc2 (GIPC PDZ domain containing family, member 2) | 1.26 | 1.75 | 1.72 | enough cells to score |
| Ovol1 (ovo like zinc finger 1) | – | 1.34 | 1 | fewer than 50 cells per well; well left out of scoring |
| Bop1 (block of proliferation 1) | -0.25 | 1.39 | 1.49 | enough cells to score |
| Ramac (RNA guanine-7 methyltransferase activating subunit) | – | 1.45 | 1.3 | fewer than 50 cells per well; well left out of scoring |
| Or4c101 (olfactory receptor family 4 subfamily C member 101) | -0.13 | 1.65 | 1.55 | enough cells to score |
| Chodl (chondrolectin) | -0.64 | 1.5 | 1.68 | enough cells to score |
| Macrod1 (mono-ADP ribosylhydrolase 1) | -2.48 (active) | 1.25 | 1.16 | enough cells to score |
| Fbxl8 (F-box and leucine-rich repeat protein 8) | -1 | 1.39 | 1.38 | enough cells to score |
| Trp53rka (transformation related protein 53 regulating kinase A) | -0.81 | 1.51 | 1.31 | enough cells to score |
| Rbm15 (RNA binding motif protein 15) | 0.09 | 1.48 | 1.58 | enough cells to score |
| Rgs16 (regulator of G-protein signaling 16) | -0.58 | 1.36 | 1.57 | enough cells to score |
| Mak16 (MAK16 homolog) | 2.29 | 1.46 | 2.01 | enough cells to score |
| Areg (amphiregulin) | 0.72 | 1.59 | 1.86 | enough cells to score |
| Or13p3 (olfactory receptor family 13 subfamily P member 3) | 2.35 | 1.88 | 1.8 | enough cells to score |
| Slbp (stem-loop binding protein) | 0.69 | 1.68 | 1.62 | enough cells to score |
| Slc15a5 | -0.51 | 1.3 | 1.53 | enough cells to score |
| Itgb1bp1 (integrin beta 1 binding protein 1) | 0.48 | 1.75 | 1.44 | enough cells to score |
| Plekhg2 (pleckstrin homology and RhoGEF domain containing G2) | 0.11 | 1.59 | 1.67 | enough cells to score |
| Tas2r129 (taste receptor, type 2, member 129) | – | 1.27 | 1.11 | fewer than 50 cells per well; well left out of scoring |
| Aqp6 (aquaporin 6) | -0.15 | 1.63 | 1.56 | enough cells to score |
